According to PubChem BioAssay AID493014 (National Center for Advancing Translational Sciences (NCATS), 2011):
Out of some 340,000 compounds screened, about 170 (0.05%) were called active. The inconclusive results got no clear call from the source; some entries with a clear call stand among them for comparison. The call rests on the fitted dose curve; in most records, active means well fitted inhibition curve with a large enough effect in the signal ratio, with a control signal flat (not every such curve was filed as active); inconclusive means small, poorly fitted or top-dose-only effect, or effect the other way, or a change in a side signal; inactive means flat fitted curve, though single readings scatter; the % refers to the signal ratio. A potency beside an inconclusive call is a rough fit, not a confirmed value.

Experiment: qHTS Assay to Find Inhibitors of Chronic Active B-Cell Receptor Signaling;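 on activity change, negative = inhibition: plate controls were basal doxycycline-induced cells for no effect and cells given 10 µM MG132 for full effect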
Conditions: ABC-DLBCL IkBa-CBG/CBR reporter, luminescence ratio (green luciferase fused to IkBa over red control in TMD8 lymphoma cells), 4 h; activity change, negative = inhibition: at 46.1 µM (top of the series)
Method in brief: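 Concentration-response series (up to 46 uM) were applied to TMD8 dual-reporter cells for 4 h at 37C with doxycycline. Green/red ratio, after filter-overlap correction, defined %Activity; red signal alone was normalised to basal cells and zero luminescence.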
Potency means the concentration at half of the fitted maximal effect.

Structure (SMILES)	activity change, negative = inhibition	Potency
O=C(CCN1C(=O)/C(=C/c2ccc(F)cc2)SC1=S)NCCCn1ccnc1	inconclusive: 2.42%	
O=S(=O)(Oc1ccc(Cl)cc1)c1cccc2cccnc12		inconclusive: 17.8 µM [falling, single point]
COCCCNC(=O)Cn1cnc2sc(C)c(S(=O)(=O)N3CC(C)CC(C)C3)c2c1=O (stereo unspecified)	inactive: -0.18%	
O=C(Nc1cccc(F)c1)c1cc(S(=O)(=O)N2CCOCC2)cs1	inconclusive: 7.09%	
Cc1ccc(S(=O)(=O)NC(=O)c2cc(C)n(-c3cc(S(=O)(=O)N4CCOCC4)ccc3N3CCCC3)c2C)cc1		inconclusive: 6.51 µM [rising, single point]
S=C(c1ccc(-c2ccc(Br)cc2)o1)N1CCOCC1	inconclusive: 0.765%	
COc1cc(OC)cc(C(=O)NCCOc2ccccc2)c1		inconclusive: 5.17 µM [rising, partial curve, poor fit]
COc1ccc(Nc2nc3ccccc3n3cnnc23)cc1Cl	inconclusive: 0.575%	
Cc1cc2nccc(-c3ccc(OCCCF)cc3)n2n1	inconclusive: 2.01%	
CCOC(=O)C1=C(COC(=O)CNC(=O)c2cccc(C)c2)NC(=O)NC1C (stereo unspecified)		inconclusive: 1.3 µM [rising, full curve]
O=c1c2c(nc3cc(-c4cccc(Cl)c4)[nH]n13)CCC2		inconclusive: 3.98 µM [falling, full curve]
O=C(COC(=O)CCC(=O)c1cccs1)NCc1ccco1	inconclusive: -6.12%	
Cc1nn(-c2ccccc2)c2c1C(c1ccc([N+](=O)[O-])cc1)C(C#N)=C(N)O2 (stereo unspecified)		inconclusive: 3.98 µM [rising, partial curve, poor fit]
CC1CCCCN1C(=O)CSc1nnc(-c2c[nH]c3ccccc23)o1 (stereo unspecified)	inconclusive: -6.19%	
CCC(CC)n1[nH]c(=O)cc1N		inconclusive: 29.1 µM [falling, single point]
CCC(C)Sc1nc(O)c(Cc2ccccc2)c(=O)[nH]1 (stereo unspecified)	inconclusive: 24.2%	
CCn1ccc(C(=O)Nc2sc3c(c2C(=O)OC)CCC3)n1	inconclusive: 6.12%	
COc1ccccc1NC(=S)N/N=C/c1ccc(O)cc1		inconclusive: 29.1 µM [cytotoxic, single point]
COc1cccc(NC(=O)Nc2cc(C(=O)NC(C)C)ccc2N2CC3CC(C2)c2cccc(=O)n2C3)c1 (stereo unspecified)	inactive: -2.32%	
N=c1c(C(=O)NC2CCCCC2)cc2c(=O)n3ccccc3nc2n1CC1CCCO1 (stereo unspecified)	inconclusive: 1.77%	
O=C(O)c1n[nH]c2c1CC(C1CCCCC1)CC2 (stereo unspecified)	inactive: 7.71%	
O=C(CSc1nnc(NC(=O)C2CC2)s1)Nc1ccc(F)cc1F	inactive: -1.83%	
CSc1nc(C)cc(C)c1C(N)=O	inconclusive: -30.7%	
COc1ccc(C(=O)N2CCN(C(=O)c3cc(OC)c(OC)c(OC)c3)CC2)cc1	inconclusive: 0.0634%	
N#Cc1c(NC(=S)NC(=O)C2CCCC2)sc2c1CCCCC2	inconclusive: 20%	
CCOC(=O)c1oc2cc(O)cc(C)c2c(=O)c1-c1cscn1		inconclusive: 3.16 µM [falling, partial curve, poor fit]

Structure (SMILES)	activity change, negative = inhibition	Potency
Cn1c(=O)oc2cc(S(=O)(=O)NCc3ccccc3)ccc21	inconclusive: -6.09%	
CCCCC(=O)Nc1ccc(NC(=O)CCCC)nc1	inconclusive: 20.7%	
COc1ccc(-c2noc(CCC(=O)N3CCN(c4ccccc4C)CC3)n2)cc1	inconclusive: 0.704%	
COc1cc(NC(=O)CCCNC(=O)Cn2cnc3sc4c(c3c2=O)CCCC4)cc(OC)c1OC	inactive: -2.32%	
CSC1=N/C(=C\c2cccc(Cl)c2)C(=O)N1N(C)C	inconclusive: 15%	
O=c1[nH]c2cc3c(cc2cc1C(c1nnnn1CC1CCCO1)N1CCCC1)OCO3 (stereo unspecified)	inconclusive: 2.74%	
C/C=C/c1ccc(OCCOc2ccc(C=O)cc2)c(OC)c1	inconclusive: 17%	
CC1(C)Oc2ccc(C(=O)NNC(=O)Nc3ccccc3)cc2NC1=O	inactive: 2.92%	
Cc1cc([N+](=O)[O-])ccc1NC(=O)/C=C/c1cccs1	inconclusive: 1.81%	
CCc1nn(CC(=O)Nc2cc(C)ccc2C)c(=N)s1		inconclusive: 12.6 µM [falling, partial curve, poor fit]
COc1cc(-c2nnc(SCC(=O)c3ccc(C)cc3)o2)cc(OC)c1OC	inconclusive: -16.6%	
COc1ccc(CC(C#N)(CO)c2nc3ccccc3[nH]2)cc1 (stereo unspecified)	inconclusive: -23.1%	
COC(=O)c1ccccc1NCC(=O)c1ccc(OC)cc1		inconclusive: 20 µM [falling, partial curve, poor fit]
Cc1ccc(NC(=O)C2CCCN2S(=O)(=O)c2ccc3c(c2)n(C)c(=O)c(=O)n3C)cc1C (stereo unspecified)	inactive: 2.46%	
O=C(CCl)NCCCCCCCCCNC(=O)CCl		inconclusive: 29.1 µM [falling, single point]
COc1cc(C2CC(=O)Oc3c(C(CCN4CCOCC4)c4ccc(N(C)C)cc4)c(OC)cc(OC)c32)cc(OC)c1OC (stereo unspecified)	inconclusive: -1.67%	
COc1cc(CN2CCCC(CO)(Cc3cccc(Cl)c3)C2)cc2c1OCO2 (stereo unspecified)	inconclusive: 2.04%	
Nc1nc(Cl)nc2c1ncn2[C@@H]1O[C@H](CO)[C@@H](O)[C@H]1O		inconclusive: 2.06 µM [falling, partial curve]
COc1ccccc1CNC(=O)[C@H](Cc1c[nH]c2ccccc12)NC(=O)[C@@H]1Cc2ccccc2CN1	inconclusive: -19.4%	
Cc1nnc(SCC(=O)NCc2ccccc2Cl)n(N)c1=O	inconclusive: 16.8%	
COc1ccc(-c2ccc(=O)n(CC(=O)Nc3ccc(OC)c(OC)c3)n2)cc1	inconclusive: 18.1%	
CCC(=O)Nc1c(C)nn(-c2ccc(C)c(C)c2)c1C	inconclusive: 1.71%	
O=[N+]([O-])c1cccc(C2=NCCC(c3ccccc3)O2)c1 (stereo unspecified)	inconclusive: -1.61%	
COc1ccc(CNC(=O)c2cc(-c3cccs3)on2)cc1		inconclusive: 11.2 µM [falling, partial curve]
CCn1c2ccccc2c2cc(NC(=O)c3cccc(OC)c3)ccc21	inconclusive: -1.1%	

Sorted by formula weight (falling): five of the compounds above.
Structure (SMILES)	activity change, negative = inhibition	Potency
COc1cc(C2CC(=O)Oc3c(C(CCN4CCOCC4)c4ccc(N(C)C)cc4)c(OC)cc(OC)c32)cc(OC)c1OC (stereo unspecified)	inconclusive: -1.67%	
O=c1[nH]c2cc3c(cc2cc1C(c1nnnn1CC1CCCO1)N1CCCC1)OCO3 (stereo unspecified)	inconclusive: 2.74%	
COc1cc(CN2CCCC(CO)(Cc3cccc(Cl)c3)C2)cc2c1OCO2 (stereo unspecified)	inconclusive: 2.04%	
CC1(C)Oc2ccc(C(=O)NNC(=O)Nc3ccccc3)cc2NC1=O	inactive: 2.92%	
CCCCC(=O)Nc1ccc(NC(=O)CCCC)nc1	inconclusive: 20.7%	
